Experimental data taken from the supplement of paper PMC7858590.
± gives the standard deviation of the averaged measurements. In all, about 3,800 compounds were measured (“cell shape (eccentricity) Z-score vs DMSO control”: median about 1.1, lowest 2% from about -4.7 on). This is one part of the list.

What follows are compounds tested on human monocyte-derived macrophages (M0) (assay: cell shape (eccentricity) Z-score vs DMSO control; higher = more elongated, M2-like morphology). Conditions: 20 µM; 24 h; macrophage state: M0 (M-CSF).

First: COc1ccc(NC(=O)c2ccc(-c3ccc(-c4noc(C)n4)cc3C)cc2)cc1N1CCN(C)CC1
Second: COC(=O)C1(Cc2ccc(O)cc2)OC(=O)C(OC)=C1c1ccc(O)cc1 (centres undefined)
The “cell shape (Z-score)” value of the first is lower: -0.626 for the first, 1.59 ± 0.76 for the second.

First: CC(NC(=O)Cc1cc(F)cc(F)c1)C(=O)NC(C(=O)OC(C)(C)C)c1ccccc1 (centres undefined)
Second: CC(C(=O)O)c1cccc(C(=O)c2ccccc2)c1 (centres undefined)
The “cell shape (Z-score)” value of the first is lower: -4.4 for the first, 0.13 for the second.

Going from `CSCC[C@H](NC(=O)[C@@H](N)Cc1c[nH]c2ccccc12)C(=O)N[C@@H](CC(=O)O)C(=O)N[C@@H](Cc1ccccc1)C(N)=O` to `O=C(NC(CO)Cc1ccccc1)c1ccccc1` (centres undefined), the “cell shape (Z-score)” value rises from -0.866 to 0.558.

Compared with `CC(=O)N(O)[C@@H]1c2cc(C#N)ccc2OC(C)(C)[C@H]1O`, `CCCC1(O)Cc2c(C(C)=O)cc3cccc(O)c3c2O1` (centres undefined) is higher in “cell shape (Z-score)” value: 0.644 for the first, 2 for the second.

Compared with `CC1=CC(=O)CC2C1(C)CCC(C)C2(C)CC/C(C)=C\C(=O)O` (centres undefined), `CC(=O)O[C@@H]1C[C@@]2(C)C(CC[C@@H]2C(C)=O)C2CCC3=CC(=O)CC[C@]3(C)C21` (some centres undefined) is lower in “cell shape (Z-score)” value: 8.02 for the first, -1.48 for the second.

First: OC(CN1CCC(Cc2ccc(F)cc2)CC1)c1ccc(Cl)cc1 (centres undefined)
Second: O=C1c2ccccc2CCC1CNCCc1ccc(O)cc1 (centres undefined)
The “cell shape (Z-score)” value of the first is lower: -3.34 for the first, 2.69 for the second.

First: C[C@@H]1O[C@@H](O[C@H]2[C@@H]3C=CO[C@@H](O[C@@H]4O[C@H](CO)[C@@H](O)[C@H](O)[C@H]4O)[C@@H]3[C@@]3(CO)O[C@@H]23)[C@H](OC(=O)/C=C/c2ccc(O)c(O)c2)[C@H](O)[C@H]1O
Second: C[C@@H]1O[C@@H](O[C@@H]2[C@@H](O)[C@H](Oc3cc(O)c4c(c3)OC(c3ccc(O)cc3)CC4=O)O[C@H](COC3OCC(O)C(O)C3O)[C@H]2O)[C@H](O)[C@H](O)[C@H]1O (some centres undefined)
The “cell shape (Z-score)” value of the first is lower: -0.274 for the first, -0.0118 for the second.

Compared with `COc1cc(C[C@H]2CO[C@H](c3ccc(O[C@@H]4O[C@H](CO)[C@@H](O)[C@H](O)[C@H]4O)c(OC)c3)[C@H]2CO)ccc1O`, `COc1cc2ccc(=O)oc2c(O[C@@H]2O[C@H](CO)[C@@H](O)[C@H](O)[C@H]2O)c1OC` is higher in “cell shape (Z-score)” value: 0.25 ± 0.75 for the first, 1.91 for the second.

Compared with `O=c1cc(-c2ccccc2O)oc2cc(O)ccc12`, `O=c1cc(-c2ccccc2)oc2cc(O)ccc12` is lower in “cell shape (Z-score)” value: 1.23 for the first, -0.27 for the second.

Compared with `CCOC(=O)COc1ccc2c(=O)cc(-c3ccccc3)oc2c1`, `O=c1cc(N2CCNCC2)oc2c(-c3ccccc3)cccc12` is higher in “cell shape (Z-score)” value: 0.221 for the first, 0.793 for the second.

Going from `CC1(C)CC[C@]2(C(=O)O)CC[C@]3(C)C(=CCC4[C@@]5(C)CC[C@H](O[C@@H]6O[C@H](CO)[C@@H](O)[C@H](O)[C@H]6O)[C@@](C)(CO)C5CC[C@]43C)[C@@H]2C1` (some centres undefined) to `CC1(C)CC[C@]2(C(=O)O)CC[C@]3(C)C(=CCC4[C@@]5(C)CC[C@H](O[C@@H]6OC[C@H](O)[C@H](O)[C@H]6O)[C@@](C)(CO)C5CC[C@]43C)C2C1` (some centres undefined), the “cell shape (Z-score)” value falls from 1.14 to -2.37.

Compared with `O=C1NC(=O)[C@@H](c2cn3c4c(cccc24)CCC3)[C@@H]1c1c[nH]c2ccccc12`, `c1cc(NCCc2c[nH]c3ccccc23)cc(Nc2ccncc2)c1` is higher in “cell shape (Z-score)” value: -1.76 for the first, 2.05 for the second.

First: C/C=C1\[C@H](O[C@@H]2O[C@H](CO)[C@@H](O)[C@H](O)[C@H]2O)OC=C(C(=O)OC)[C@H]1CC(=O)OC
Second: C=C(C(=O)O[C@@H]1O[C@H](CO)[C@@H](O)[C@H](O)[C@H]1O)[C@@H]1CC[C@@]2(C)C[C@H](O)C[C@@](C)(O)C2C1 (some centres undefined)
The “cell shape (Z-score)” value of the first is lower: 0.196 for the first, 2.36 for the second.

Going from `CNC(=NC#N)NCCSCc1csc(N=C(N)N)n1` to `CCOC(=O)c1cnc2c(cnn2CC)c1NN=C(C)C`, the “cell shape (Z-score)” value falls from 2.04 to -0.739.

Compared with `C=C(C)[C@H]1C[C@@]2(C)C(=CC1=O)CC[C@@H](O)[C@@H]2C`, `CC(=O)O[C@@H]1CC2C(C)(CC[C@H](O)C2(C)C)C2CC[C@]3(C)C(=CC(=O)O[C@H]3c3ccoc3)C21C` (some centres undefined) is higher in “cell shape (Z-score)” value: -0.264 for the first, 0.0269 for the second.

First: Cc1cc(=O)oc2cc(O)cc(O)c12
Second: O=c1c(O)cccc2cc(O)c(O)c(O)c12
The “cell shape (Z-score)” value of the first is higher: -0.982 for the first, -1.08 for the second.

Compared with `COc1ccc2c(c1OC)OC[C@@H](c1ccc(OC)c(OC)c1OC)C2`, `COc1ccc(-c2coc3cc(O)ccc3c2=O)c(O)c1O` is higher in “cell shape (Z-score)” value: 2.19 for the first, 3.23 for the second.

`OC[C@H]1O[C@@H](OC(CCCCc2ccc(O)cc2)CCc2ccc(O)cc2)[C@H](O)[C@@H](O)[C@@H]1O` (some centres undefined) and `COc1ccc(C2CC(=O)c3c(O)cc(O[C@@H]4O[C@H](CO[C@@H]5O[C@@H](C)[C@H](O)[C@@H](O)[C@H]5O)[C@@H](O)[C@H](O)[C@H]4O)cc3O2)cc1` (some centres undefined) are within error of each other in “cell shape (Z-score)” value: 0.0638 ± 0.68 for the first, -0.496 for the second.

First: Nc1nnnn1-c1ccccc1
Second: CCC1(c2ccccc2)C(=O)NCNC1=O
The “cell shape (Z-score)” value of the first is lower: 0.136 for the first, 2.5 for the second.

Compared with `Cn1cnc2c(NCc3ccccc3)nc(NCCO)nc21`, `COc1cccc(CCc2ccccc2OCC[C@@H]2C[C@@H](O)CN2C)c1` is lower in “cell shape (Z-score)” value: 2.51 for the first, -1.88 for the second.

Going from `CC1(C)CC1C(=O)NC(=CCCCCSCC(N)C(=O)O)C(=O)O` (centres undefined) to `CCC(C)/C=C/C1=CC2=C(Cl)C(=O)C3(C)OC(=O)C(C(=O)C(C)C(C)O)C3C2=CO1` (centres undefined), the “cell shape (Z-score)” value falls from 8.47 to -2.83.

Compared with `NC(=O)CNCCC(c1ccccc1)c1ccccc1`, `CCCCOc1ccc(C(=O)CCN2CCCCC2)cc1` is higher in “cell shape (Z-score)” value: 2.9 for the first, 3.04 for the second.

`COc1cc(=O)oc(C(C)C(C)O)c1CO` (centres undefined) and `COc1cccc2c1C(=O)c1c(O)c3c(c(O)c1C2=O)C[C@@](O)(C(=O)CO)C[C@@H]3O[C@H]1C[C@H](N)[C@H](O)[C@H](C)O1` are within error of each other in “cell shape (Z-score)” value: 2.74 ± 0.56 for the first, 3.64 ± 4.4 for the second.

Going from `CC1Cc2ccc3c(c2C(O)C1)C(=O)c1cccc(O)c1C3O` (centres undefined) to `Cc1cc(O)c2c(c1)C(=O)c1cccc(O)c1C2=O`, the “cell shape (Z-score)” value falls from 4.24 to 3.93.

Compared with `COc1cc2ncn(-c3cc(OCc4ccccc4C(F)(F)F)c(C(N)=O)s3)c2cc1OC`, `COc1c(C2OCC(OC(C)=O)C(OC(C)=O)C2OC(C)=O)c(O)cc2oc(-c3ccc(OC4OC(CO)C(O)C(O)C4O)cc3)cc(=O)c12` (centres undefined) is lower in “cell shape (Z-score)” value: 15.5 for the first, -0.896 for the second.

Going from `Cc1oc(=O)oc1CN1CCN(c2cc3c(cc2F)c(=O)c(C(=O)O)c2n3C(C)S2)CC1` (centres undefined) to `C=C1[C@H]2CC[C@@]3(C)[C@H](c4ccoc4)OC(=O)C[C@]13O[C@H]1C[C@H](O)C(C)(C)[C@H](CC(=O)OC)[C@]12C`, the “cell shape (Z-score)” value rises from -5.14 to -1.66.

First: O=C(O)c1cc2cc(Cl)ccc2[nH]1
Second: CC#CC#C/C=C1\C=CC2(OC=CC2OC(=O)C=C(C)C)O1 (centres undefined)
The “cell shape (Z-score)” value of the first is higher: 0.516 for the first, -2.06 for the second.
